Reference: patent publication US8034930B2, “Boron-dipyrrin compounds comprising thienyl groups, preparation method thereof and chemosensor comprising the same” (Korea Advanced Institute of Science and Technology, priority 2008, dated 2011)
Some compounds share one wording; it may come from a single statement.

Key:
[1] = Hg^2+ detection limit, UV-IR absorption spectrum; settings: equates to 20 μL of 1×10^−3 molar Hg^2+ solution; compound 1×10^−5 molar in CH3CN
[2] = Cu^2+ bonding reversibility with Na4EDTA, UV-IR spectroscopy; settings: for appearance of solution on addition of EDTA: compound 5×10^−5 molar in CH3CN, Na4EDTA in distilled water
[3] = Selectivities to metal ions by UV-IR absorption and fluorescence spectroscopy (Hg^2+); settings: for alteration of UV-IR absorption spectrum for Hg^2+: compound 1×10^−5 molar in CH3CN, metal perchlorate, ratio 1:1
[4] = Selectivities to metal ions by UV-IR absorption and fluorescence spectroscopy (Cu^2+); settings: CH3CN solution

Row | Compound | Hg^2+ detection limit [1] [ppm] | appearance of solution on addition of EDTA [2] | alteration of UV-IR absorption spectrum for Hg^2+ [3] | color variation dependent on Cu^2+ content [4] | fluorescent levels by UV radiation with Cu^2+ [4] | absorption spectrum pattern after EDTA addition to compound combined with Cu^2+ (bonding reversibility) ([2]; Cu^2+ 15 times, Na4EDTA 30 times compound, CH3CN) | influence of added Hg^2+ on variation of colors and alteration of fluorescent levels ([3]; CH3CN solution)
1 | 3-(3-thienyl)-4,4-di(3-thienyl)-8-(3-thienyl)-4-bora-3a,4a-diaza-s-indacene [5b] | 1.7 | became muddy | alteration was much less, compared to compound (4b) | – | – | – | –
2 | C1=CC2=C(c3cccs3)c3ccc(-c4cccs4)n3[B-](c3cccs3)(c3cccs3)[N+]2=C1 [4a, 3-(2-thienyl)-4,4-di(2-thienyl)-8-(2-thienyl)-4-bora-3a,4a-diaza-s-indacene] | 1.7 | – | alteration was much less, compared to compound (4b) | – | – | – | –
3 | C1=CC2=C(c3ccsc3)c3ccc(-c4cccs4)n3[B-](c3cccs3)(c3cccs3)[N+]2=C1 [4b, 3-(2-thienyl)-4,4-di(2-thienyl)-8-(3-thienyl)-4-bora-3a,4a-diaza-s-indacene] | 1.7 | became muddy | slightly observed | from pink to colorless | increase of fluorescent levels | not exactly identical to the original pattern | less influence
4 | C1=CC2=C(c3cccs3)c3ccc(-c4ccsc4)n3[B-](c3ccsc3)(c3ccsc3)[N+]2=C1 [5a, 3-(3-thienyl)-4,4-di(3-thienyl)-8-(2-thienyl)-4-bora-3a,4a-diaza-s-indacene] | 1.7 | – | alteration was much less, compared to compound (4b) | – | – | – | –
